The values below come from publication PMC13016608.

These are yes or no findings as the source states them, for the method shown. Binding can be weak; no strength is given.

The first assay has as its target T1, SPO-11 (C. elegans) (UniProt Q22236).
T1 sequence: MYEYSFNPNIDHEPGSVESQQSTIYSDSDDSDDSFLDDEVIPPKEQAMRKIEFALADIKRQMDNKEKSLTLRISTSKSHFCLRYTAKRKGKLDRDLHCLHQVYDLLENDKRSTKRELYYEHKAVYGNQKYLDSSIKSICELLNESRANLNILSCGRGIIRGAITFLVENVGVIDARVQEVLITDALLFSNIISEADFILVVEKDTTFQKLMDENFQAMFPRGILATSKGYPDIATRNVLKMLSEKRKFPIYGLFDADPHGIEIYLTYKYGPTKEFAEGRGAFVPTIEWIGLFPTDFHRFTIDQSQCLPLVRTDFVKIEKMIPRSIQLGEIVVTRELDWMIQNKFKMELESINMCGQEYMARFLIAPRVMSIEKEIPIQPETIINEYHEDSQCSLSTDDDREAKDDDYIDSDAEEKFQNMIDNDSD
The assay can be described thus: two-hybrid; GAL4 activating domain (pGAD-C1) and binding domain (pGBD-C1) fusions co-transformed into yeast PJ69-4a; growth on SC-LEU-TRP-HIS (weak interactions) and SC-LEU-TRP-ADE (strong interactions), 30°C, 72 hr.
On to “DSB-1 (1–114) (C. elegans) (domain or fragment)”, for which the binding entry is “binds”.

On to “DSB-1 (1–145) (C. elegans) (domain or fragment)”, for which the binding result is listed as “binds”.

As to DSB-1 (C. elegans), the binding result is reported as “binds”.

As for DSB-2 (from UniProt D2Y8W2), the binding entry is “no binding”.

For DSB-3 (C. elegans), the binding result is “no binding”.

As for HIM-5 (C. elegans), the binding result was “no binding”.

For HIM-17 (from UniProt Q22360), the binding entry was “no binding”.

Take REC-1 (C. elegans): the binding result is “no binding”.

The next assay concerns the target XND-1 (C. elegans) (UniProt O45134). The description is as above.
With HIM-17 (from UniProt Q22360), the binding result is recorded as “binds”.
